In the supplement of paper PMC4749390:
Where a name gives a salt, the structure may show the parent alone. The list shows a part of the results. This data set is noisy: repeats of one test often differ as much as different tests do.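 JEG3 cells stably carry tetracycline-induced wild-type human LRH-1, a heavily sumoylated nuclear receptor. APOC3 and MUC1 are SUMO-sensitive transcripts, raised by SUMO-less LRH-1 or UBC9 knockdown, measured by RT-qPCR against TBP and DMSO controls. A robust Z-score above +2 or below -2 marked a primary hit before toxicity and TBP filtering.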

Tested on: JEG3 expressing hLRH-1
Test: MUC1 transcript change (ddCt vs TBP and DMSO), Z-score over library; higher = higher MUC1 expression
Details: 10 µM; time (hr): 24

Going from `C=CCOC(Cn1ccnc1)c1ccc(Cl)cc1Cl` (configuration not stated) [enilconazole] to `C=CCc1ccc(O)c(OC)c1` [eugenol], the “MUC1 transcript change (Z-score)” value falls from 0.517 to 0.349.

Compared with `OC(c1cc(C(F)(F)F)nc2c(C(F)(F)F)cccc12)C1CCCCN1` (configuration not stated) [mefloquine], `CCN1C(=O)NC(c2ccccc2)C1=O` (configuration not stated) [ethotoin] is higher in “MUC1 transcript change (Z-score)” value: -0.148 for the first, 0.271 for the second.

Compared with `CSCC[C@H](NC(=O)[C@H](Cc1c[nH]c2ccccc12)NC(=O)[C@H](C)NC(=O)OC(C)(C)C)C(=O)N[C@@H](CC(=O)O)C(=O)N[C@@H](Cc1ccccc1)C(N)=O` [pentagastrin], `CN1C(CC(=O)c2ccccc2)CCCC1CC(O)c1ccccc1` (configuration not stated) [lobeline hydrochloride] is higher in “MUC1 transcript change (Z-score)” value: 0.231 for the first, 0.239 for the second.

Compared with `CC(C)(C)NC[C@H](O)COc1nsnc1N1CCOCC1` [timolol maleate], `CCCNC(C)C(=O)Nc1ccccc1C` (configuration not stated) [prilocaine hydrochloride] is higher in “MUC1 transcript change (Z-score)” value: 0.34 for the first, 0.913 for the second.

Going from `C[C@]12CCC(=O)C=C1CC[C@@H]1[C@@H]2[C@@H](O)C[C@@]2(C)[C@H]1CC[C@]2(O)C(=O)COC(=O)CCC(=O)O` [hydrocortisone hemisuccinate] to `CCOC(=O)OC(C)OC(=O)[C@@H]1N2C(=O)[C@@H](NC(=O)[C@H](N)c3ccccc3)[C@H]2SC1(C)C` (some centres not stated) [bacampicillin hydrochloride], the “MUC1 transcript change (Z-score)” value rises from -0.169 to 0.0913.

Going from `CC(C)[C@H](N)C(=O)OCCOCn1cnc2c(O)nc(N)nc21` [valacyclovir hydrochloride] to `CCn1cc(C(=O)O)c(=O)c2ccc(C)nc21` [nalidixic acid], the “MUC1 transcript change (Z-score)” value rises from 0.565 to 0.576.

Going from `CC(=O)N[C@@H](CCC(N)=O)C(=O)O` [aceglutamide] to `O=C(O)CCCCC(=O)O` [adipic acid], the “MUC1 transcript change (Z-score)” value rises from -0.245 to 0.643.

Going from `CCC(C)[C@H]1O[C@]2(CC[C@@H]1C)C[C@@H]1C[C@@H](C/C=C(\C)[C@@H](OC3C[C@H](OC)C(O[C@H]4C[C@H](OC)[C@@H](O)[C@H](C)O4)[C@H](C)O3)[C@@H](C)/C=C/C=C3\CO[C@@H]4[C@H](O)C(C)=C[C@@H](C(=O)O1)[C@]34O)O2` (some centres not stated) [ivermectin] to `CC1CCc2c(N3CCC(O)CC3)c(F)cc3c(=O)c(C(=O)O)cn1c23` (configuration not stated) [nadifloxacin], the “MUC1 transcript change (Z-score)” value falls from 0.413 to -0.145.

First: Nc1ncn([C@@H]2O[C@H](CO)[C@@H](O)[C@H]2O)c(=O)n1 [5-azacytidine]
Second: CN1C(C(=O)Nc2ccccn2)=C(O)c2sc(Cl)cc2S1(=O)=O [lornoxicam]
The “MUC1 transcript change (Z-score)” value of the first is lower: -1.75 for the first, 0.456 for the second.

First: COc1ccc(CN(CCN(C)C)c2ccccn2)cc1 [Pyrilamine maleate]
Second: CCCCCCCCCCCCCCCC[N+](C)(C)CCN(Cc1ccc(OC)cc1)c1ncccn1 [thonzonium bromide]
The “MUC1 transcript change (Z-score)” value of the first is higher: 0.0631 for the first, 0.0367 for the second.

Compared with `Cc1c(C)c2c(c(C)c1O)CCC(C)(CCCC(C)CCCC(C)CCCC(C)C)O2` (stereo not drawn) [alpha-tochopherol], `CNCCC=C1c2ccccc2CCc2ccccc21` [Nortriptyline hydrochloride] is higher in “MUC1 transcript change (Z-score)” value: 0.249 for the first, 0.637 for the second.
